PubChem BioAssay AID1259308 – NCATS, 2017
In all, the deposit lists about 59,000 reagents; below is an unselected part. About 1,510 of all reagents (2.6%) count as active. 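Calls use total luciferase alone and ignore viability, so some active siRNAs may act by altering cell number.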 The numbers tell different reagents against one gene apart.

- Screen: 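Knock-downs that increase output of a recombinant reporter protein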 (primary screen)
- Cell system: human HEK293 embryonic kidney cells stably expressing firefly luciferase (HEK-CMV-Luc2-Hygro)
- Knock-down reagent: single siRNA against human genes, 0.8 pmol siRNA per well
- Timing: 72 h
- Read-out: 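Reporter luminescence and viable-cell signal on separate replicate plates, given as percent of non-targeting control and median/MAD z-scores, plus per-cell luciferase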
- Scale: total luciferase, z-score and total luciferase, % of control: higher = more reporter protein produced; luciferase per cell, z-score: higher = more reporter output per viable cell; viable cells, % of control: higher = more viable cells
- Rule for the call: 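Active when the median/MAD z-score for overall luciferase is greater than 3; a gene was taken forward for validation with new siRNAs if at least two of its three siRNAs passed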
- Calls: active = raised luciferase; inactive = no rise

gene	reagent	total luciferase, z-score	total luciferase, % of control	luciferase per cell, z-score	viable cells, % of control	Outcome
PLA2G12B	1	-1.21	57.9	-0.809	80.1	inactive
PLA2G12B	2	0.384	89.5	0.706	83.1	inactive
PLA2G12B	3	-0.374	74.5	-0.75	101	inactive
FCER1G	1	-0.191	78.1	-0.404	97.1	inactive
FCER1G	2	-0.0254	81.4	-0.548	105	inactive
FCER1G	3	0.491	91.7	-0.429	115	inactive
PROCR	1	1.28	107	1.36	83.8	inactive
PROCR	2	-2.66	28.9	-3.51	81.4	inactive
PROCR	3	-0.515	71.6	-1.02	105	inactive
MOB3A	1	0.0377	82.6	0.269	86	inactive
MOB3A	2	0.0956	83.8	-0.0725	95.4	inactive
MOB3A	3	-0.843	65.1	-1.11	97.6	inactive
EIF1AY	1	0.286	87.6	0.625	83	inactive
EIF1AY	2	0.0476	82.8	-0.54	107	inactive
EIF1AY	3	1.67	115	0.962	99.8	inactive
CCDC42	1	-0.546	71	-0.0111	79.6	inactive
CCDC42	2	-0.172	78.5	-0.241	93.4	inactive
CCDC42	3	0.0116	82.1	-0.606	108	inactive
DIDO1	1	-0.33	75.3	-0.238	89.6	inactive
DIDO1	2	0.556	92.9	0.693	86.5	inactive
DIDO1	3	4.6	173	2.38	103	active
CLK1	1	-1.71	47.9	-0.453	60.3	inactive
CLK1	2	0.356	89	1.03	75.8	inactive
CLK1	3	-0.367	74.6	0.186	79.4	inactive
PDCD4	1	0.571	93.3	1.11	77.7	inactive
PDCD4	2	3.73	156	3.02	78.9	active
PDCD4	3	-0.29	76.1	-0.65	101	inactive
MRPS7	1	-0.0362	81.2	-0.518	104	inactive
MRPS7	2	1.39	110	1.19	89.5	inactive
MRPS7	3	-1.67	48.7	0.486	47.9	inactive
GPNMB	1	-0.52	71.5	-0.746	97.3	inactive
GPNMB	2	0.322	88.3	0.832	79.2	inactive
GPNMB	3	0.301	87.9	0.0389	97.2	inactive
PRIM2	1	0.443	90.7	0.589	86.8	inactive
PRIM2	2	-1.58	50.4	-2.09	97.6	inactive
PRIM2	3	-0.543	71.1	-0.806	98.2	inactive
SOCS6	1	0.314	88.1	-0.256	105	inactive
SOCS6	2	-0.457	72.8	-0.0596	82.6	inactive
SOCS6	3	0.118	84.2	-0.399	105	inactive
RPS6KA2	1	2.59	133	2.77	71.9	inactive
RPS6KA2	2	-0.0875	80.1	-0.633	106	inactive
RPS6KA2	3	-2.09	40.3	-2.5	86.9	inactive
ALDH1L1	1	0.176	85.4	0.923	74.8	inactive
ALDH1L1	2	-1.06	60.8	-1.52	101	inactive
ALDH1L1	3	-0.873	64.5	-0.937	92.3	inactive
PRPS1L1	1	-0.394	74.1	0.291	76.6	inactive
PRPS1L1	2	-0.0941	80	-0.431	100	inactive
PRPS1L1	3	-0.164	78.6	1.61	57.5	inactive
LSP1P5	1	-0.0866	80.2	0.882	71	inactive
LSP1P5	2	0.573	93.3	-0.202	110	inactive
LSP1P5	3	1.31	108	0.765	98.7	inactive
PRSS38	1	-0.998	62	-1.6	106	inactive
PRSS38	2	0.752	96.8	0.677	90.5	inactive
PRSS38	3	-0.676	68.4	-0.796	94.3	inactive
CCN3	1	3.36	149	2.15	94.3	active
CCN3	2	-0.269	76.5	0.178	81.6	inactive
CCN3	3	0.432	90.5	-0.444	114	inactive

9 entries from above, arranged by “total luciferase, z-score”, ascending:
gene	reagent	total luciferase, z-score	total luciferase, % of control	luciferase per cell, z-score	viable cells, % of control	Outcome
MRPS7	3	-1.67	48.7	0.486	47.9	inactive
GPNMB	1	-0.52	71.5	-0.746	97.3	inactive
CLK1	3	-0.367	74.6	0.186	79.4	inactive
PDCD4	3	-0.29	76.1	-0.65	101	inactive
MRPS7	1	-0.0362	81.2	-0.518	104	inactive
GPNMB	2	0.322	88.3	0.832	79.2	inactive
PDCD4	1	0.571	93.3	1.11	77.7	inactive
MRPS7	2	1.39	110	1.19	89.5	inactive
PDCD4	2	3.73	156	3.02	78.9	active
